From PubChem BioAssay AID651640 (Broad Institute, 2012)
Among all 350,000 compounds or so, about 6,000 (1.7%) were called active. The shares of active, inactive and inconclusive entries below differ from those in the screen. Cut-off read from the data, not from the text of the source: active = CPE inhibition above about 20% (passing the limit was not always enough); inconclusive = no clear call, values can overlap the other calls; tested in BHK-21 cells.

Experiment: protection of cells from dengue 2 killing – plate reader, single concentration, primary screen (AID 651640);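 note: 0% = median of neutral control wells and 100% = median of positive control wells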
Conditions: DENV2-infected cells, cytopathic effect rescue, at 9.99 µM, stronger effect = higher value

| Compound | CPE inhibition |
| --- | --- |
| Cc1nnc(NC(=O)c2cc3ccccc3o2)s1 | inactive: -0.389% |
| COc1ccc(NC(=O)N(C)C[C@@H]2Oc3c(NS(=O)(=O)c4ccc(F)cc4)cccc3C(=O)N([C@H](C)CO)C[C@@H]2C)cc1 | inconclusive: 59.5% |
| O=C(C[C@@H]1CC[C@@H]2[C@H](COC[C@H](O)CN2S(=O)(=O)c2cccc(Cl)c2)O1)NC1CCC1 | inconclusive: 69.1% |
| COc1ccc2c3c(n(C)c2c1)[C@H](CO)N(C(C)=O)CC31CN(Cc2nccs2)C1 | inactive: -6.9% |
| COc1ccccc1N1CCN(C(=O)CCc2nnc3ccc(N4CCCC4)nn23)CC1 | inconclusive: 30.1% |
| O=C(Nc1cccc(S(=O)(=O)N2CCCCCC2)c1)C1CC(=O)N(c2ccc3c(c2)OCCO3)C1 (centres undefined) | inconclusive: 24.3% |
| Cc1ccc(NC(=O)C(=O)NCC2CCCN2S(=O)(=O)c2cccs2)cc1 (centres undefined) | active: 37.8% |
| O=C(NNC(=O)c1ccc2ccccc2c1)c1cccc(Cl)c1 | inconclusive: 26.7% |
| Cc1ccc(C(=O)OCC(=O)Nc2ccc3c(c2)OCCO3)cc1C | inconclusive: 32% |
| COc1ccccc1NS(=O)(=O)c1ccc(C)c(C(=O)NC2CCN(Cc3ccccc3)CC2)c1 | inconclusive: 46.3% |
| C/C=C/[C@@H](CC(=O)N1Cc2ccccc2C[C@H]1CO)[Si](C)(C)c1ccc(OC)cc1 | active: 39.4% |
| COc1ccc(-n2c(C)c(C(C)=O)c3cc(OCC(N)=O)ccc32)cc1 | inactive: 4.93% |
| CCCNC(=O)N1CC2(CN(S(=O)(=O)CC)C2)c2c(n(C)c3cc(OC)ccc23)[C@@H]1CO | inactive: -4.33% |
| O=C(c1cccc(F)c1)N1C[C@H]2[C@@H](c3ccccc31)[C@@H](CO)N2C(=O)c1cccc(F)c1 | active: 20.9% |
| COc1ccc(-c2ccccc2[C@H]2[C@@H](CO)N(C(=O)C3CCC3)[C@H]2C#N)cc1 | active: 70.3% |
| COc1ccc(-c2nnc(SCC(=O)N(C)C3CCS(=O)(=O)C3)n2CC(C)C)cc1 (centres undefined) | inconclusive: 26.9% |
| CCC(=O)N(C)C[C@H]1Oc2cc(C#CC(C)(C)O)ccc2S(=O)(=O)N([C@@H](C)CO)C[C@H]1C | inactive: -1.82% |
| CO[C@@H]1CN(C)C(=O)c2cc(NC(=O)Cc3ccccc3)ccc2OC[C@H](C)N(C(C)=O)C[C@@H]1C | inactive: -2.52% |
| C[C@@H]1CN([C@H](C)CO)C(=O)c2cc(NC(=O)C3CCCCC3)ccc2O[C@@H](C)CCCCO[C@H]1CN(C)C(=O)NC1CCCCC1 | inconclusive: 62.9% |
| C[C@@H]1CCCCO[C@@H](CN(C)C(=O)Nc2ccc(F)cc2)[C@H](C)CN([C@H](C)CO)C(=O)c2cc(NC(=O)Nc3ccc(F)cc3)ccc2O1 | active: 64.7% |
| C[C@@H]1CN([C@H](C)CO)C(=O)CCCn2cc(nn2)CO[C@H]1CN(C)C(=O)Nc1ccc2c(c1)OCCO2 | inconclusive: 33% |
| COc1cccc(COC(=O)C2CC(=O)N(Cc3ccc(C)cc3)C2)c1OC (centres undefined) | inconclusive: 37.6% |
| Cc1noc(C)c1NC(=O)N(C)C[C@@H]1Oc2c(NS(=O)(=O)c3ccc(Cl)cc3)cccc2C(=O)N([C@H](C)CO)C[C@@H]1C | inconclusive: 25.8% |

| Compound | CPE inhibition |
| --- | --- |
| CC(C)NC(=O)N1CC(=O)N2[C@H](CO)[C@H](c3ccc(C#CCN(C)C)cc3)[C@@H]2C1 | active: 23.2% |
| O=S(=O)(c1ccccc1)N1[C@@H]2CNC[C@H]1C2c1ccc(-c2ccccc2)cc1 (some centres undefined) | active: 68.3% |
| C[C@@H]1CN([C@@H](C)CO)C(=O)Cc2cc(NC(=O)C3CC3)ccc2O[C@@H]1CN(C)Cc1ccc(-c2ccccc2)cc1 | active: 31.3% |
| CC(C)NC(=O)Nc1ccc2c(c1)CC(=O)N([C@H](C)CO)C[C@H](C)[C@H](CN(C)S(=O)(=O)c1ccccc1)O2 | inactive: -3.02% |
| CNC[C@@H]1Oc2ccc(NS(=O)(=O)c3cn(C)cn3)cc2C(=O)N([C@@H](C)CO)C[C@H]1C | active: 23.1% |
| Cc1ccc(S(=O)(=O)Nc2ccc3c(c2)C(=O)N([C@@H](C)CO)C[C@@H](C)[C@H](CN(C)C(=O)Nc2ccc(F)cc2)OCCCC[C@@H](C)O3)cc1 | inactive: 2.37% |
| Cc1nnc(SCC(=O)Nc2cc(S(=O)(=O)N3CCOCC3)ccc2C)s1 | inconclusive: 20.1% |
| CC(=O)N1CC2(C1)[C@H](c1ccc(-c3ccc(F)cc3)cc1)[C@H](CO)N2CC1CC1 | inactive: -10.3% |
| CNC[C@H]1Oc2ccc(NC(=O)Nc3ccc(F)cc3)cc2C(=O)N([C@H](C)CO)C[C@@H]1C | inconclusive: 23.1% |
| CC1(C(=O)NS(=O)(=O)c2cccc(F)c2)CCN1C(=O)Cc1cccs1 (centres undefined) | inconclusive: 21% |
| C[C@@H]1CN([C@@H](C)CO)C(=O)c2cccc(NS(C)(=O)=O)c2O[C@H]1CN(C)C(=O)Nc1ccc(F)cc1 | inconclusive: 24.1% |
| COc1ccc2c3c(n(C)c2c1)[C@@H](CO)N(S(=O)(=O)c1ccc(C)cc1)CC31CCN(C(=O)c2ccccn2)CC1 | inactive: -9.1% |
| CCCN1[C@@H]2Cn3c(ccc(C4=CCCC4)c3=O)[C@H]1[C@@H](C(=O)NCCOC)[C@@H]2CO | inconclusive: 63.2% |
| O=C(Cc1ccccc1)N[C@H]1C=C[C@@H](CC(=O)N2CCOCC2)O[C@H]1CO | active: 52.8% |
| CCOc1cc(/C=N/NC(=O)c2cccnc2)ccc1OCC(=O)N(C)C | inactive: -6.22% |
| CN(C)CC#Cc1ccc([C@H]2[C@@H](CO)N(C(=O)C3CCCC3)[C@H]2C#N)cc1 | inactive: -0.238% |
| CC[C@]12c3[nH]c4ccc(OC)cc4c3CCN1C(=O)C(CC(=O)NCCCN(C)C)C[C@@H]2C(=O)N1CCN(C(=O)c2ccco2)CC1 (some centres undefined) | inconclusive: 24.1% |
| COc1ccccc1NS(=O)(=O)c1ccc(C(=O)N2CCN(c3ccccc3O)CC2)cc1 | inconclusive: 26.2% |
| CCCNC(=O)C[C@@H]1CC[C@H]2[C@@H](COc3ccc(NC(=O)c4cccc(C(F)(F)F)c4)cc3C(=O)N2C)O1 | active: 24.1% |
| COc1ccc(OC)c(C(=O)NC(CC(N)=O)c2ccc(NCc3ccccn3)c([N+](=O)[O-])c2)c1 (centres undefined) | inconclusive: 66.3% |
| O=C(O)C1C2CCC(CC2)C1C(=O)N1CCN(Cc2ccc(F)cc2)CC1 (centres undefined) | inconclusive: 24.9% |
| COCC(=O)N1CC[C@@H]2[C@@H](CO)Nc3ccc(-c4cccc(C#N)c4)cc3[C@@H]21 | inconclusive: 20.6% |
| C[C@@H]1CN([C@H](C)CO)C(=O)c2cc(NC(=O)c3ccccc3)ccc2O[C@@H](C)CCCCO[C@@H]1CN(C)Cc1ccc(C(=O)O)cc1 | active: 115% |

An excerpt of the results above, as a working copy:

| Compound | CPE inhibition |
| --- | --- |
| CNC[C@@H]1Oc2ccc(NS(=O)(=O)c3cn(C)cn3)cc2C(=O)N([C@@H](C)CO)C[C@H]1C | active: 23.1% |
| Cc1ccc(S(=O)(=O)Nc2ccc3c(c2)C(=O)N([C@@H](C)CO)C[C@@H](C)[C@H](CN(C)C(=O)Nc2ccc(F)cc2)OCCCC[C@@H](C)O3)cc1 | inactive: 2.37% |

The list continues:

| Compound | CPE inhibition |
| --- | --- |
| O=C(COC(=O)c1ccccc1OC(F)F)Nc1ccc(N2CCCCC2)cc1 | inconclusive: 32.1% |
| OC(CCl)CCl | active: 32.4% |
| C[C@@H]1CCCCO[C@H](CN(C)S(=O)(=O)c2ccc(Cl)cc2)[C@H](C)CN([C@H](C)CO)C(=O)c2cc(N(C)C)ccc2O1 | active: 88.6% |
| CC1(C)C2CC[C@]1(C)C(=O)N(CCCCN1CCN(c3ccccn3)CC1)C2=O | inconclusive: 51.6% |
| COc1ccccc1NC(=O)CSc1nnc(C2CCCCC2)n1N | inconclusive: 29.3% |
| C[C@@H]1CN([C@@H](C)CO)C(=O)c2cc(NS(=O)(=O)c3ccc(F)cc3)ccc2O[C@H]1CN(C)S(=O)(=O)c1ccccc1 | inactive: 2.2% |
| CCC(=O)Nc1ccc2c(c1)C(=O)N(C)[C@@H]1CC[C@H](CC(=O)NCC3CC3)O[C@H]1CO2 | inconclusive: 22.7% |
| COc1ccc(NC(=S)NNC(=O)c2cccnc2)cc1OC | inconclusive: 28.3% |
| Cc1cc(OC(C)C(=O)NC2CC(C)(C)NC(C)(C)C2)c2c(C)c(C)c(=O)oc2c1 (centres undefined) | active: 45% |
| COCC1CCN(C(=O)C2CCC(=O)N(Cc3cccc(C(F)(F)F)c3)C2)CC1 (centres undefined) | inconclusive: 44.2% |
| Cc1noc(C)c1S(=O)(=O)Nc1ccc2c(c1)CC(=O)N([C@H](C)CO)C[C@@H](C)[C@@H](CN(C)C(=O)Nc1ccc3c(c1)OCO3)O2 | inconclusive: 25.2% |
| COc1ccc(CN2C[C@@H](O)COC[C@H]3O[C@H](CC(=O)NCc4ccncn4)CC[C@@H]32)cc1 | inactive: 0.717% |
| CN1C(=O)c2cc(NC(=O)C3CC3)ccc2OC[C@@H]2O[C@@H](CC(=O)NCC3CCCCC3)CC[C@H]21 | inactive: -2.08% |
| Cc1ccc(/C=N/NC(=O)CNC(=O)COc2ccccc2)cc1 | inactive: -7.66% |
| O=C(O)CNc1ncccc1[N+](=O)[O-] | inconclusive: 21.9% |
| O=S(=O)(Cc1ccccc1)N1CCCCN2[C@@H](CO)[C@@H](c3ccc(-c4cccnc4)cc3)[C@@H]2C1 | inactive: 8.84% |
| C[C@H](NC(=O)N(C)C[C@H]1OCc2ccccc2-c2c(n(C)c3ccccc23)C(=O)N([C@H](C)CO)C[C@H]1C)c1ccccc1 | active: 31.6% |
| COC(=O)C[C@H]1CC[C@@H]2[C@H](COc3ccc(NC(=O)c4cccc(Cl)c4)cc3C(=O)N2C)O1 | inconclusive: 38.5% |
| C[C@@H]1CCCCO[C@@H](CN(C)Cc2ccccc2)[C@H](C)CN([C@@H](C)CO)C(=O)c2cc(NC(=O)CCCN(C)C)ccc2O1 | inconclusive: 91.3% |
| CCN(CC(=O)NCc1cccs1)C(=O)/C=C/c1ccc(OC)cc1OC | active: 30.4% |
| COc1ccccc1C(=O)NNC(=O)C(=O)Nc1ccc(C)cc1 | inconclusive: 32.9% |
| COc1ccc(-c2noc(-c3ccccc3F)n2)cc1 | inconclusive: 43.8% |
| O=S(=O)(NC[C@H]1N[C@@H](CO)[C@H]1c1ccc(C2=CCCC2)cc1)c1ccccc1 | active: 32.1% |

Compounds from the list above that contain a thiophene ring, fused or not, in the order listed:

| Compound | CPE inhibition |
| --- | --- |
| Cc1ccc(NC(=O)C(=O)NCC2CCCN2S(=O)(=O)c2cccs2)cc1 (centres undefined) | active: 37.8% |
| CC1(C(=O)NS(=O)(=O)c2cccc(F)c2)CCN1C(=O)Cc1cccs1 (centres undefined) | inconclusive: 21% |
| CCN(CC(=O)NCc1cccs1)C(=O)/C=C/c1ccc(OC)cc1OC | active: 30.4% |
